In PubChem BioAssay AID504834 (National Center for Advancing Translational Sciences (NCATS), 2011):
In all, about 320,000 compounds went through this assay and about 22,000 (6.9%) were called active. Inconclusive means that the source gave no clear call. Such entries were picked first, then a sample of the others. Calls come from the whole dose curve; as a rule, active = well fitted inhibition curve with a large enough effect; inconclusive = small, poorly fitted or top-dose-only effect, or another doubt; inactive = no such curve, though single readings can be large or run the other way. Potencies beside an inconclusive call are fits to weak or partial responses and may not hold up.

Assay: Primary qHTS for delayed death inhibitors of the malarial parasite plastid, 96 hour incubation
Conditions: P. falciparum luciferase reporter growth; series mostly up to 28.7 µM
Method in brief: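 Cell-based qHTS: luciferase-tagged P. falciparum in erythrocytes (2% hematocrit, 0.05% parasitemia final) incubated with compounds for 96 hours, 37 C, 5% CO2; luciferase detection reagent then added and luminescence measured.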
Potency is the fitted concentration of half-maximal effect.

Row | Structure (SMILES) | Potency
1 | COc1ccc(NC(=O)CSc2nc(N)cc(=O)[nH]2)cc1S(=O)(=O)N1CCCCC1 | inconclusive: 14.7 µM [inhibitor, partial curve, poor fit]
2 | CCCNC(=O)[C@H]1N2C(=O)c3c(ccc(OC)c3OC)C2SC1(C)C (some centres undefined) | inactive
3 | COC(=O)CCC(=O)OC1(C)C(=O)C=C2C=C(C3CC3)N(CCCCO)C=C2C1=O (centres undefined) | active: 7.38 µM
4 | CCOc1ccc(-n2c(SCC(=O)Nc3ccc4c(c3)OCCO4)nc3c(c2=O)SCC3)cc1 | inconclusive: 11.7 µM [inhibitor, single point]
5 | COc1ccc(-c2nnc(SCc3ccccc3F)o2)cc1 | inactive
6 | CCN1CCN(CC2COc3ccccc3O2)CC1 (centres undefined) | inactive
7 | C#CCN1C(=O)C2(C(C#N)=C(N)OC(C)=C2C(=O)OCc2ccccc2)c2ccccc21 (centres undefined) | inconclusive: 0.037 µM [inhibitor, full curve, poor fit]
8 | Cc1c(C(=O)NCCNc2ncc(C(F)(F)F)cc2Cl)cccc1[N+](=O)[O-] | inactive
9 | Cc1cc(O)ccc1NC(=O)CCN1C(=O)c2ccc([N+](=O)[O-])cc2C1=O | inactive
10 | CCC(=O)Nc1nc2ccccc2n1Cc1ccccc1 | inconclusive: 0.329 µM [inhibitor, partial curve, poor fit]
11 | CCCn1c(C(CO)Nc2nc(-c3cccc(Br)c3)cs2)nc2ccccc21 (centres undefined) | active: 5.86 µM
12 | Cc1sc2nc(-c3ccccc3)[nH]c(=O)c2c1-c1ccccc1 | inactive
13 | Cc1c(N(C(=O)CNC(=O)c2ccccc2)C2(C(=O)NC3CCCC3)CCCCC2)c(=O)n(-c2ccccc2)n1C | inconclusive: 3.29 µM [inhibitor, partial curve]
14 | COc1cc(CNn2nnnc2N)cc(Br)c1OCc1c(Cl)cccc1Cl | inconclusive: 10.4 µM [inhibitor, partial curve, poor fit]
15 | CC(C)c1nnc(NC(=O)CCC(=O)N2CCN(c3ccc(F)cc3)CC2)s1 | inconclusive: 18.5 µM [inhibitor, single point]
16 | CN(C)c1ccc(C(=O)N/N=C/c2ccccn2)cc1 | active: 9.28 µM
17 | CCOC(=O)N1CCN(C(=O)c2ccccc2-c2ccccc2)CC1 | inconclusive: 9.28 µM [inhibitor, partial curve]
18 | CC(C)(C)c1nc2scc(-c3ccc(Br)cc3)c2c(=O)o1 | inconclusive: 2.08 µM [inhibitor, full curve, poor fit]
19 | COc1ccc([C@H]2CC(=O)C=C(c3ccnc4ccc(Cl)cc34)C2)cc1 | inconclusive: 6.57 µM [inhibitor, single point]
20 | Cc1cccc(-c2c(NC(=O)c3ccco3)oc3ccc(Cl)cc3c2=O)c1 | inactive
21 | CCOc1ccc(/C=N/Nc2ccccn2)cc1OC | inactive
22 | O=C(Cn1cnc2cc([N+](=O)[O-])ccc2c1=O)NCc1ccccc1 | inactive
23 | COc1ccc(CCN2CCCn3c2nc2c3c(=O)[nH]c(=O)n2C)cc1OC | inactive

2 of the compounds above, as tab-separated lines:
Row	Structure (SMILES)	Potency
8	Cc1c(C(=O)NCCNc2ncc(C(F)(F)F)cc2Cl)cccc1[N+](=O)[O-]	inactive
9	Cc1cc(O)ccc1NC(=O)CCN1C(=O)c2ccc([N+](=O)[O-])cc2C1=O	inactive

Continued.

Row | Structure (SMILES) | Potency
24 | C1CNCCOCCNCCN1 | inconclusive: 0.165 µM [inhibitor, full curve, poor fit]
25 | C/C(=N\OCc1nc2ccccc2c(=O)n1/N=C/c1cc([N+](=O)[O-])ccc1O)c1ccccc1 | inconclusive: 11.7 µM [inhibitor, single point]
26 | CC(C)(C)c1ccc(-c2nc3n(c(=O)c2C#N)CCS3)cc1 | inconclusive: 1.17 µM [inhibitor, single point]
27 | Cc1cc(C)c2[nH]c(=O)c(CN(Cc3cccs3)C(=S)NCC3CCCO3)cc2c1 (centres undefined) | inactive
28 | CC(=O)Nc1nc(C)nc(C)c1C(C)=O | inconclusive: 4.15 µM [inhibitor, full curve, poor fit]
29 | CN1CC=C2C(C#N)=C(N)C(C#N)(C#N)C(c3ccncc3)C2C1 (centres undefined) | inactive
30 | COc1ccc(/C=N/Nc2ccc([N+](=O)[O-])cc2S(=O)(=O)N2CCN(C)CC2)cc1 | inconclusive: 10.4 µM [inhibitor, single point]
31 | CC(C)(C)C1=Nn2c(nnc2-c2ccccc2F)SC1 | inconclusive: 11.7 µM [inhibitor, single point]
32 | O=C(/C=C/c1cccnc1)c1cc(F)ccc1O | inconclusive: 0.0828 µM [inhibitor, full curve, poor fit]
33 | CCc1c(O)nc(SC2CC(=O)N(c3ccc(F)c(Cl)c3)C2=O)[nH]c1=O (centres undefined) | inconclusive: 10.4 µM [inhibitor, partial curve]
34 | COc1cc(OC)cc(-c2nc(N)n[nH]2)c1 | inconclusive: 4.65 µM [inhibitor, partial curve, poor fit]
35 | COc1cccc(CNC(=O)c2cc(=O)[nH]c3ccc(S(=O)(=O)N4CCOCC4)cc23)c1 | inactive
36 | CCOc1ccc(N(CC(=O)NCc2ccccc2)S(=O)(=O)c2c(C)noc2C)cc1 | inconclusive: 10.4 µM [inhibitor, partial curve, poor fit]
37 | NC(=O)CSC1=Nc2ccccc2C2=NC(c3ccccc3)C(=O)N12 (centres undefined) | inconclusive: 1.47 µM [inhibitor, partial curve, poor fit]
38 | Fc1ccc(-n2nnc(-c3ccccc3Cl)n2)cc1 | inconclusive: 18.5 µM [inhibitor, single point]
39 | N#CCOc1nc(N2CCOCC2)nc(N2CCOCC2)n1 | inconclusive: 13.1 µM [inhibitor, single point]
40 | COc1ccc(C2N(c3cc(C)on3)C(=O)C3CCCN32)cc1 (centres undefined) | active: 3.29 µM
41 | COc1cc(/C=N/N2CCCCC2)cc([N+](=O)[O-])c1O | inactive
42 | CCN(CC)CCCNC(=O)c1ccc2c(Cl)c3c(nc2c1)CCCC3 | inconclusive: 18.5 µM [inhibitor, single point]
43 | O=C(CNS(=O)(=O)c1ccc2c(c1)OCCCO2)N1CCN(c2ccc(F)cc2)CC1 | inconclusive: 18.5 µM [inhibitor, single point]
44 | CC1CN(S(=O)(=O)c2ccc(C(=O)Nc3sccc3C(N)=O)cc2)CC(C)O1 (centres undefined) | inconclusive: 11.7 µM [inhibitor, single point]
45 | O=C(NC(=S)Nc1ccccc1N1CCN(C(=O)c2ccccc2)CC1)c1cccs1 | inconclusive: 9.28 µM [inhibitor, partial curve]
46 | COc1cccc(-c2cc(C(F)(F)F)nc(NCc3ccco3)n2)c1 | inconclusive: 9.28 µM [inhibitor, single point]

Row | Structure (SMILES) | Potency
47 | C=CCN(CC=C)CCCOc1ccc(C)cc1OC | inconclusive: 18.5 µM [inhibitor, single point]
48 | Cc1c(C(=O)Nc2ccccc2Cl)oc2ccc(S(=O)(=O)N3CCC4(CC3)OCCO4)cc12 | inconclusive: 18.5 µM [inhibitor, single point]
49 | CN(CC(=O)Nc1ccccc1Br)C(=O)CNC(=O)c1ccc2c(c1)OCO2 | inactive
50 | CCOC(=O)C1=C(COC(=O)/C=C/c2ccc(C)o2)NC(=O)NC1C (centres undefined) | inconclusive: 18.5 µM [inhibitor, single point]
51 | O=C(CN1CCCCC1)Nc1nnc(-c2ccc([N+](=O)[O-])cc2)s1 | inactive
52 | Cc1ccc(O)c(-c2cc(C(F)(F)C(F)F)nc(-c3ccccc3)n2)c1 | active: 8.28 µM
53 | O=C(Nc1ccc2oc(-c3cccnc3)nc2c1)c1cccnc1 | inconclusive: 2.62 µM [inhibitor, partial curve, poor fit]
54 | O=C(O)CSCCOc1ccc(OCCSCC(=O)O)cc1 | inactive
55 | COc1ccccc1NC(=O)C(C)OC(=O)CCC1CCCCC1 (centres undefined) | inactive
56 | COc1ccc(NC(=O)CN2CCC(NC(=O)C3CCCCC3)CC2)c([N+](=O)[O-])c1 | inconclusive: 2.62 µM [inhibitor, partial curve, poor fit]
57 | COc1ccccc1-n1cnc2c(c1=O)c1nc3ccccc3nc1n2-c1ccc(C)cc1 | inconclusive: 9.28 µM [inhibitor, partial curve]
58 | Cc1cc(NC(=O)CC2(CC(=O)O)CCCC2)n(C)n1 | inactive
59 | COc1ccccc1CNC(=O)[C@H](NC(=O)C1CCN(C(=O)[C@@H](N)CCSC)CC1)C(C)C | inconclusive: 14.7 µM [inhibitor, partial curve, poor fit]
60 | CCCCn1c(SCC(=O)c2ccc3c(c2)OCCO3)nnc1-c1ccco1 | inconclusive: 4.15 µM [inhibitor, single point]
61 | COC(=O)[C@]1(C)CCC[C@@]2(C)C3CC[C@]4(OC(C)=O)C[C@@]3(CCC21)CC4=O (some centres undefined) | inconclusive: 14.7 µM [inhibitor, single point]
62 | CCC1CCCCN1CCCNC(=O)CCCOc1cc(=O)n(C)c2ccccc12 (centres undefined) | active: 6.57 µM
63 | Cc1ccc(S(=O)(=O)N2CCOCC2)cc1C(=O)N1CCC(Cc2ccccc2)CC1 | inactive
64 | c1ccc(CN2CCC3(CCCc4ccccc43)CC2)cc1 | inconclusive: 10.4 µM [inhibitor, single point]
65 | CCc1ccc(NC(=O)C(=O)NCC2CCCO2)cc1 (centres undefined) | inactive
66 | CCOC(=O)N1CCN(C(=O)c2ccc3c(c2)N=C(C)c2cc(Cl)ccc2S3)CC1 | inconclusive: 11.7 µM [inhibitor, partial curve, poor fit]
67 | Cc1ccc(C(NC(=O)c2cccc(S(=O)(=O)N3CCN(C)CC3)c2)c2ccccc2)cc1 (centres undefined) | inconclusive: 2.94 µM [inhibitor, partial curve, poor fit]
68 | COc1ccc(C(=O)NC2CCN(S(=O)(=O)c3ccc(C)cc3)CC2)cc1 | inconclusive: 18.5 µM [inhibitor, single point]
69 | COC(=O)c1ccccc1NC(=O)N1CCN(c2ccc(OC)cc2)CC1 | inconclusive: 14.7 µM [inhibitor, partial curve]

Taken from above:
CCN1CCN(CC2COc3ccccc3O2)CC1 (centres undefined) – Potency: inactive
COc1ccc(CCN2CCCn3c2nc2c3c(=O)[nH]c(=O)n2C)cc1OC – Potency: inactive
COc1cc(/C=N/N2CCCCC2)cc([N+](=O)[O-])c1O – Potency: inactive
C=CCN(CC=C)CCCOc1ccc(C)cc1OC – Potency: inconclusive: 18.5 µM [inhibitor, single point]
Cc1ccc(O)c(-c2cc(C(F)(F)C(F)F)nc(-c3ccccc3)n2)c1 – Potency: active: 8.28 µM
COC(=O)CCC(=O)OC1(C)C(=O)C=C2C=C(C3CC3)N(CCCCO)C=C2C1=O (centres undefined) – Potency: active: 7.38 µM
